Measurements: the supplement of paper PMC11409438
Where a name gives a salt, the structure may show the parent alone. The list shows a part of the results. Single values are uncertain, as repeats are few or missing.

system: Caenorhabditis elegans ST65 (ncIs13[ajm-1::GFP]); test: 'Larvae/adult' ratio (MetaXpress pharynx counts; minimum value 1, so it appears to include adults; growth inhibition read-out); conditions: 10 µM; exposure time: 4-5 days from L1 at 20°C

Row | SMILES | 'Larvae/adult' ratio
1 | CC1(C)CCC(CN2CCN(c3ccc(C(=O)NS(=O)(=O)c4ccc(NCC5CCOCC5)c([N+](=O)[O-])c4)c(Oc4cnc5[nH]ccc5c4)c3)CC2)=C(c2ccc(Cl)cc2)C1 [Venetoclax (ABT-199, GDC-0199)] | 2.41
2 | COc1ccc(COc2cc3oc(=O)c4cc(C(C)O)ccc4c3cc2OC)cc1 (stereo not drawn) [Palomid 529 (P529)] | 1.79
3 | C=CC(=O)Nc1cccc(Oc2nc(Nc3ccc(N4CCN(C)CC4)cc3)nc3ccsc23)c1 | 2.3
4 | Cc1ccc(-c2cc(C(F)(F)F)nn2-c2ccc(S(N)(=O)=O)cc2)cc1 [Celecoxib] | 2.23
5 | N#Cc1ccc(C(c2ccc(C#N)cc2)n2cncn2)cc1 [Letrozole] | 2.43
6 | NC(=O)c1cnc2[nH]ccc2c1N[C@@H]1[C@@H]2CC3C[C@H]1C[C@@](O)(C3)C2 | 2
7 | CCNC(=O)c1noc(-c2cc(C(C)C)c(O)cc2O)c1-c1ccc(CN2CCOCC2)cc1 [Luminespib (AUY-922, NVP-AUY922)] | 2.03
8 | CNC(=O)c1nn(C)c2c1C(C)(C)Cc1cnc(Nc3ccc(N4CCN(C)CC4)cc3)nc1-2 | 4.91
9 | CC(C)(C)c1cnc(CSc2cnc(NC(=O)C3CCNCC3)s2)o1 | 1.71
10 | Nc1cc(F)ccc1NC(=O)c1ccc(CNC(=O)/C=C/c2cccnc2)cc1 [Tucidinostat (Chidamide)] | 2.45
11 | CC#CC(=O)N1CC[C@@H](n2c(=O)n(-c3ccc(Oc4ccccc4)cc3)c3c(N)ncnc32)C1 [ONO-4059 (GS-4059) hydrochloride] | 3.44
12 | Nc1cccc2c1C(=O)N(C1CCC(=O)NC1=O)C2=O (stereo not drawn) [Pomalidomide] | 1.29
13 | COc1cc2c(N3CCN(C(=O)Nc4ccc(OC(C)C)cc4)CC3)ncnc2cc1OCCCN1CCCCC1 [Tandutinib (MLN518)] | 1.35
14 | O=C(O)c1ccc(CN2CCC(CN[C@@H]3C[C@H]3c3ccccc3)CC2)cc1 | 1.94
15 | CCN(CC)C(=S)SSC(=S)N(CC)CC [Disulfiram] | 2.29
16 | Cn1cc(-c2ccc(F)c(C(F)(F)F)c2)nc1C1CCN(c2ncnc3[nH]ncc23)CC1 | 2.65
17 | O=C(O)CC[C@H]1CC[C@@](c2cc(F)ccc2F)(S(=O)(=O)c2ccc(Cl)cc2)CC1 | 2.1

Reformatted in CSV form: two of the compounds above.
Row,SMILES,'Larvae/adult' ratio
12,Nc1cccc2c1C(=O)N(C1CCC(=O)NC1=O)C2=O (stereo not drawn) [Pomalidomide],1.29
13,COc1cc2c(N3CCN(C(=O)Nc4ccc(OC(C)C)cc4)CC3)ncnc2cc1OCCCN1CCCCC1 [Tandutinib (MLN518)],1.35

(continued)

Row | SMILES | 'Larvae/adult' ratio
18 | CCCCCCCCCCCCCCCCOP(=O)([O-])OCC[N+](C)(C)C [Miltefosine] | 2.33
19 | N#CC1(c2ccc(NC(=O)c3cccnc3NCc3ccncc3)cc2)CCCC1 | 2.88
20 | CCc1c2c(nc3ccc(O)cc13)-c1cc3c(c(=O)n1C2)COC(=O)[C@]3(O)CC | 1.23
21 | Cc1cc(Nc2ncc(Cl)c(Nc3ccccc3S(=O)(=O)C(C)C)n2)c(OC(C)C)cc1C1CCNCC1 [Ceritinib (LDK378)] | 1.9
22 | CCN(CC)CCCC(C)Nc1c2ccc(Cl)cc2nc2ccc(OC)cc12 (stereo not drawn) [Quinacrine Dihydrochloride Dihydrate] | 5.51
23 | c1cc(CN2CCCNCCNCCCNCC2)ccc1CN1CCCNCCNCCCNCC1 [Plerixafor (AMD3100)] | 2.53
24 | CC(C)c1cc(-c2n[nH]c(=O)n2-c2ccc3c(ccn3C)c2)c(O)cc1O [Ganetespib (STA-9090)] | 1.45
25 | CC[C@H](NC(=O)[C@H](C)NC)C(=O)N1C[C@@H](O)C[C@H]1Cc1c(-c2[nH]c3cc(F)ccc3c2C[C@@H]2C[C@H](O)CN2C(=O)[C@H](CC)NC(=O)[C@H](C)NC)[nH]c2cc(F)ccc12 [Birinapant] | 1.61
26 | CC1(C)OCCn2c1nc1c(N3CCOCC3)nc(-c3cnc(N)nc3)nc12 | 2.41
27 | NC1(c2ccc(-c3nc4ccn5c(=O)[nH]nc5c4cc3-c3ccccc3)cc2)CCC1 | 2
28 | COc1ccccc1S(=O)(=O)Nc1ccc2c(c1)CN(C)C(=O)N2 | 3.42
29 | CC1(COc2ccc3c(c2)ncn3-c2ccc3cccc(N4CCC(N)CC4)c3n2)COC1 | 1.76
30 | CC(C)(C)c1cc(NC(=O)Nc2ccc(-c3cn4c(n3)sc3cc(OCCN5CCOCC5)ccc34)cc2)no1 [Quizartinib (AC220)] | 3.39
31 | C[C@]12CC[C@@H]3c4ccc(O)cc4C[C@@H](CCCCCCCCC[S+]([O-])CCCC(F)(F)C(F)(F)F)[C@H]3[C@@H]1CC[C@@H]2O (stereo partly drawn) [Fulvestrant] | 1.81
32 | Cc1ccc(=O)n(-c2ccccc2)c1 [Pirfenidone] | 1.67
33 | CCN(CC)CCN(Cc1ccc(-c2ccc(C(F)(F)F)cc2)cc1)C(=O)Cn1c(SCc2ccc(F)cc2)nc(=O)c2c1CCC2 | 1.83
